Measurements taken from patent publication US4879313A, “Novel platelet-aggregation inhibitors” (Mosanto Company, priority 1988, dated 1989).
At least one peptide structure holds a part that was inferred or is arguable (an end, a ring closure or a residue). Residues, ends and D or L forms follow the SMILES beside them.

System: ADP-induced platelet aggregation in human PRP
Experiment: In-vitro human platelet aggregation in PRP (ADP-induced)
Assay type: cell-based
Details: for HUMAN PRP % INHIBITION AT 10^-4 M: compound at 10^-4 M, human platelet-rich plasma; for IC50: human PRP, linear regression of the dose response curve
Procedure: In one assay, platelet aggregation is examined in platelet-rich plasma which also is rich in fibrinogen and other plasma proteins. The % inhibition is determined for the test compound by comparing the extent of platelet aggregation in the presence and absence of the test compound.
Healthy male or female donors who have not taken any antiplatelet drugs for at least 2 weeks were fasted for 8 hours prior to drawing blood; then 30 ml whole blood was collected using a butterfly needle and 30 cc plastic syringe with 3 ml of 0.129 M buffered sodium citrate (3.8%). The syringe was rotated carefully as blood was drawn to mix the citrate. Platelet-richplasma (PRP) was prepared by centrifugation at 100×g for 10 minutes at room temperature, allowing the centrifuge to coast to a stop without braking. The PRP was removed from the blood with a plastic pipette and placed in a plastic capped, 50 ml Corning conical sterile centrifuge tube which was held at room temperature. Platelet poor plasma (PPP) was prepared by centrifuging the remaining blood at 2000×g for 15 minutes at room temperature allowing the centrifuge to coast to a stop without braking. The PRP was adjusted with PPP to a count of 2-3×10^8 platelets per ml. 400 μl of the PRP preparation and 50 μl of the compound to be tested or saline were preincubated for 1 minute at 37° C. in a Payton aggregometer (Payton Scientific, Inc., Buffalo, N.Y.). 50 μl of adenosine 5'-diphosphate (ADP) (50 μM) was added to the cuvettes and the aggregation was monitored for 1 minute. All compounds are tested in duplicate. Results are calculated as follows: Percent of control=[(maximal OD minus initial OD of compound) divided by (maximal OD minus initial OD of control saline)]×100. The % inhibition=100-(percent of control).
The compounds tested and their activity results in % inhibition at 10^-4 M and median inhibitory concentration (IC50) were as recorded in Table 1.

Structure (SMILES)	HUMAN PRP % INHIBITION AT 10^-4 M	IC50
COc1ccc(C[C@H](NC(=O)[C@H](CC(=O)O)NC(=O)CNC(=O)[C@@H](N)CCCNC(=N)N)C(N)=O)cc1 [Arg--Gly--Asp--(O--methyl-Tyr)--NH2, Arg-Gly-Asp-(O-methyl-Tyr)-NH2, reference compound] (H-RGDY(Me)-NH2)	100%	30 µM
N=C(N)NCCC[C@H](N)C(=O)NCC(=O)N[C@@H](CC(=O)O)C(=O)N[C@@H](CO)C(=O)O [Arg--Gly--Asp--Ser, Arg-Gly-Asp-Ser, reference compound]	25%	130 µM
